Experiment: Fmoc solid-phase peptide synthesis; Fmoc-Pro-p-alkoxybenzyl-alcohol-resin; PyBrop, BOP-Cl after N-methyl amino acids; EDCI/HOBt in solution; PyBop
Conditions: whole synthesis, scale 3 mmol

## N,N-dimethyl-Val-Val-NMe-Val-Pro-{1-[thiazol-(2)-yl]-2-phenyl}-ethylamide
  crude mass: 750 mg

Source: patent US6015790A (BASF Aktiengesellschaft, priority 1997, dated 2000)
